Amino acid sequences for entries named in this document (tags omitted).
UniProt P50053, whole entry: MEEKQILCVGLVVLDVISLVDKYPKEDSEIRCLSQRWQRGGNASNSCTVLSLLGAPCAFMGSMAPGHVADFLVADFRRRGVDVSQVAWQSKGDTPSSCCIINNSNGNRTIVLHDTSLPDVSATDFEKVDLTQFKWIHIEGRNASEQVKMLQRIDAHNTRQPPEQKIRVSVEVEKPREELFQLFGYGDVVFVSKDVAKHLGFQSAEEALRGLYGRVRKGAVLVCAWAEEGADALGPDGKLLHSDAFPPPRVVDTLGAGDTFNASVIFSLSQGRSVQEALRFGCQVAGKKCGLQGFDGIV

In patent EP4630114B1, “NEW CYANOPYRIDINE KHK INHIBITOR COMPOUNDS” (dated 2026):

Biological target: fructose-1-phosphate generation in HepG2 cells (Homo sapiens, UniProt P50053)
Assay: Inhibition of fructose-1-phosphate generation in HepG2 cells (Assay B, RapidFire-MS/MS)
Settings: read-out: HepG2 assay (Assay B) IC50, 30 min with test compound, then 15 mM D-fructose for further 60 min, 37°C

In the case of CS(=O)(=O)c1ccccc1Nc1nc(N2C[C@H]3CNC[C@H]3C2)cc(C(F)(F)F)c1C#N, the IC50 is reported as 194 nM.

Biological target: recombinant human KHK-C (Homo sapiens, UniProt P50053)
Assay: Human KHK-C inhibition assay (Assay A, ADP-GLO Kinase Assay)
Settings: read-out: KHK inhibition assay (Assay A) IC50; His-tagged human KHK-C (1 µg/ml), 400 µM D-fructose, 200 µM ATP, 60 min at room temperature

CSc1ccc(CC(=O)O)cc1Nc1nc(N2CC[C@H](N(C)C)C2)cc(C(F)(F)F)c1C#N and CSc1ccc(CC(=O)O)cc1Nc1nc(N2CC[C@@H](N)C2)cc(C(F)(F)F)c1C#N are within 1.5-fold of each other in IC50: 8 nM for the first, 6.1 nM for the second.

CS(=O)(=O)c1ccc(Cl)cc1Nc1nc(N2C[C@H]3CNC[C@H]3C2)cc(C(F)(F)F)c1C#N and CS(=O)(=O)c1ccccc1Nc1nc(N2C[C@H]3CNC[C@H]3C2)cc(C(F)(F)F)c1C#N are within 1.5-fold of each other in IC50: 7.4 nM for the first, 6.5 nM for the second.

Going from CS(=O)(=O)c1ccccc1Nc1nc(N2CCNCC2)cc(C(F)(F)F)c1C#N to CCc1ccccc1Nc1nc(N2CCNCC2)cc(C(F)(F)F)c1C#N, the IC50 rises from 91 nM to 176 nM (1.9-fold). The first is the more potent here.

Compared with COP(=O)(O)Cc1ccc(SC)c(Nc2nc(N3CC[C@H](N(C)C)C3)cc(C(F)(F)F)c2C#N)c1, CSc1ccc(OC(C)C(=O)O)cc1Nc1nc(N2CC[C@H](N(C)C)C2)cc(C(F)F)c1C#N (stereo partly shown) is 1.8-fold lower in IC50: 16.9 nM for the first, 9.3 nM for the second. The second is the more potent here.

Compared with CSc1ccc(Cl)cc1Nc1nc(N2CCNCC2)cc(C)c1C#N, CSc1ccc(Cl)cc1Nc1nc(N2CCNC(=O)C2)cc(C(F)(F)F)c1C#N is 3.4-fold higher in IC50: 21.5 nM for the first, 72.1 nM for the second. The first is the more potent here.

CN[C@@H]1CCN(c2cc(C(F)F)c(C#N)c(Nc3cc(OC(C)C(=O)O)ccc3SC)n2)C1 (stereo partly shown) and CSc1ccc(OC(C)C(=O)O)cc1Nc1nc(N2CC[C@@H](N)C2)cc(C(F)F)c1C#N (stereo partly shown) are within 1.5-fold of each other in IC50: 2.8 nM for the first, 4.1 nM for the second.

N#Cc1c(C(F)F)cc(N2CC[C@@H](N)C2)nc1Nc1ccccc1C1CC1 and CN[C@@H]1CCN(c2cc(C(F)F)c(C#N)c(Nc3cc(CCC(=O)O)ccc3SC)n2)C1 are within 1.5-fold of each other in IC50: 3.7 nM for the first, 4.7 nM for the second.

Compound N#Cc1c(C(F)(F)F)cc(N2CCNCC2)nc1Nc1ccccc1SC(F)F has an IC50 of 10.8 nM.

The structures given here were assigned with low confidence; some may be wrong.
